B1: tRNA (parent)
chain: GUUCCGUUGGCGUAAUGGUAACGCGUCUCCCUCCUAAGGAGAAGACUGCGGGUUCGAGUCCCGUACGGAACG

Variants at the floor of the assay are shown more often than the library holds them. Some results are limits rather than exact numbers.

In the data set the parent is B1. The data set can be described thus: yeast fitness relative to wild type (ratio to wild type); higher = fitter; tRNA-Arg(CCU), competitive growth, 37 C, YPD. An outline of the steps:
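Amplicons of the tRNA-Arg(CCU) gene were sequenced, 100-nucleotide paired-end, from the start population and from each end population of a pooled yeast competition. The competition, in six parallel replicates, lasted 24 hours in YPD at 37°C. Fitness relative to wild type was calculated from changes in genotype frequencies. Genotypes had to have ≥ 100 starting reads, and estimates < 0.5 were set to 0.5.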
In the case of G12A U19C U28C A37U G52A, the yeast fitness was at most 0.5.

On to U26C C30G G52A, for which the yeast fitness is at most 0.5. As to G25C U28C G48C C49U, the yeast fitness is at most 0.5.

As for A20C A37C A43G C55U, the yeast fitness was at most 0.5. With U13G A20U U53G the figure was at most 0.5; with C29U C31U U59G, at most 0.5. With C29G C31G U54C U64A the figure was at most 0.5; with G52A C62A, at most 0.5.

As to A45G G58C C62A C66G, the yeast fitness is at most 0.5.

Consider C5U G23A G25C, for which the yeast fitness amounted to 0.65. For G6A G9A A57C A65C A70C, the yeast fitness is at most 0.5. For U3C U8G U32A C33G U53A, the yeast fitness was at most 0.5. With G12A A57U the figure was 0.668; with A37U C66U A69U, at most 0.5. The result for A15C C29G C46U C55A G68C reads at most 0.5; that for U8A G18A C27A A37C G56A, at most 0.5. The result for G10A G38A A57G reads at most 0.5; that for C31U G52C U54A C66U, at most 0.5.

As for U3C G9A A21G A40G U64C, the yeast fitness was at most 0.5. With U2G U19A A21G A65U G67C, the yeast fitness was 0.543. With U16C C24G C30G A36U the figure was at most 0.5; with C11A A20U U28A C31G G39C U47G C49U G67A, at most 0.5. The result for A20U C22G C49U C62U reads at most 0.5; that for C5G U19G C22U U32C G58C C62U, at most 0.5. Regarding C5A U28G G68C, the yeast fitness was at most 0.5. With C11A A40C G41C the figure was at most 0.5; with C11G U13G A21G C27U, at most 0.5.

With C4A C5A A15U C33G G38A U59G, the yeast fitness is at most 0.5. Take C5G A45U A57U: the yeast fitness came to 0.565. Consider A14C C22A A37U G63A, for which the yeast fitness is at most 0.5.

Regarding A40U C55A, the yeast fitness turned out to be 0.584.

In the case of G18C G25U C31G C55G A57C, the yeast fitness was at most 0.5.

Consider C46U C49U U53C A65U, for which the yeast fitness is at most 0.5. A15G C55G G56U G58A: the yeast fitness is at most 0.5. With C4G G9C C34A A36G A40C, the yeast fitness is at most 0.5. With U3A C27U C30G the figure was at most 0.5; with A37U A40C A42G C66U, at most 0.5; with G10A C29G A36G A65C, at most 0.5. Regarding U3A C4G U8A C24G C61A, the yeast fitness was at most 0.5. The result for U7C G41A A42C G50C G63A A70G reads 0.555; that for C4A A20U U28A C31U A65U, at most 0.5; that for G9C G10C A36U G44A C46G C49U, at most 0.5. The result for C11A U16A C29G A42C G51A A70U reads at most 0.5. For the variant U8G A20G A37G A43G, the yeast fitness is at most 0.5. The result for C5A A21C G67A reads at most 0.5; that for C11U A20G C24A A42U, at most 0.5; that for G12A C27U G39C, at most 0.5.

In the case of G25A C29A U64C, the yeast fitness is at most 0.5. As for C22A C30U C31G C61U A69C, the yeast fitness was at most 0.5.

Take A37U C61A G67A: the yeast fitness was at most 0.5. With U32A G52C C55U C66U the figure was at most 0.5; with C11U C24G A70G, 0.649; with U26A A65U C66A, at most 0.5. C4A U7A C31U: the yeast fitness is at most 0.5.

With U3C C27U G50A, the yeast fitness came out at 0.648.

For the variant C11G C29U A65U, the yeast fitness was at most 0.5. Regarding U3A C30U G67A, the yeast fitness came to 0.553.

As for A21G U53C G56C, the yeast fitness is at most 0.5. With U47G U59A C66A the figure was at most 0.5; with G6A A15G A42G C60G A70U, at most 0.5; with C11G C29G G38A G44A C46U C62G, at most 0.5. The result for A43G A70U reads 1.01; that for G9C U13C C27U C46G, at most 0.5; that for C22G G23C G39A A45C C49U U59G, at most 0.5.

For the variant U3C U47A U53C, the yeast fitness is at most 0.5. For the variant A20G A36G, the yeast fitness is 1.01. With G10A G17A A36G A40C C55A the figure was at most 0.5; with C11G C27U C33G G52A, at most 0.5; with U26C C29A G51C, at most 0.5. With C4G U13C, the yeast fitness was determined as 0.886. C24U C46G A65U: the yeast fitness is 0.782.

Take U7C A15G G63C: the yeast fitness is at most 0.5. With G18A C46U G63C the figure was at most 0.5; with C5U U26G, 0.969.

Regarding C49G G63C G68C, the yeast fitness is at most 0.5. With U16G A20G A69C the figure was 0.749; with U26A A36U, 0.606. The result for C34A A43G A69C reads at most 0.5; that for C4G G9A A14G G25C, at most 0.5. In the case of C5U C30U C34A A36G, the yeast fitness is at most 0.5. Take C31A C34G G56A: the yeast fitness is at most 0.5. Consider A57C C60U A65G, for which the yeast fitness was at most 0.5.

On to C11U U32G A37G A45G C55A, for which the yeast fitness is at most 0.5. With A21G G23A C27U G44C C46G C62A the figure was at most 0.5; with G6A A21G C46A C55U G56A, at most 0.5. For U16A C34U, the yeast fitness came to 0.663. The result for A20U C27G C29A G58A reads at most 0.5.

For the variant A14C A20G U47A, the yeast fitness was at most 0.5. Consider A21G G23A C27G A37U G44A C49U A65U, for which the yeast fitness was at most 0.5.

With U3G C5G U19C C55G, the yeast fitness is at most 0.5. With U3G C24U C27G C30A the figure was at most 0.5; with G38C C62A G67C, at most 0.5; with U8C U28A C31G A42U C49G G67U, at most 0.5. With U2G A37C G41A C49U C60G G68U the figure was at most 0.5; with G6A A15C A20U, 0.56; with G10A A57U U59A A65C G67A, at most 0.5. As for G25C C29U C34G, the yeast fitness was at most 0.5. The result for C30U C34A A36U C62A reads at most 0.5; that for U2C G6C A21C C66U, at most 0.5. Take G9A C11G U19C G56A C60G G67A: the yeast fitness was at most 0.5. With A37U A40C C62U A65U the figure was at most 0.5. Consider U2G C4U A37G C61A C62U A65U A69C, for which the yeast fitness is at most 0.5. The result for A14G A21C C30G A57U reads at most 0.5; that for C5G U19C U35A A43C, at most 0.5; that for C4U C31G U47C G48C, at most 0.5. G10C G25C G44C G58A: the yeast fitness is at most 0.5. Regarding C5A A45C C60A G68A, the yeast fitness was at most 0.5. The result for A20G U28A C62G reads at most 0.5. The result for C24U A37C A40G U54A C61U reads at most 0.5; that for G12A A20U A45C C60U C61U, at most 0.5. With U3C U16G C30U C33U U47C G56A, the yeast fitness is at most 0.5. Consider G10A C34G, for which the yeast fitness was at most 0.5. With U2C C49U C60G, the yeast fitness is at most 0.5.

For A15G C30U U32A, the yeast fitness was at most 0.5. On to U8A U26A A43C, for which the yeast fitness was at most 0.5. Turning to U7G G10C C24G C31G C33G A43C, the yeast fitness is at most 0.5.

In the case of U8G C34A G39A A40G, the yeast fitness was at most 0.5. The result for G12A C24U C27A G56A reads at most 0.5; that for C4G A15C U26G G41C C55U C60G, at most 0.5; that for G12C C29U G51A G56A G63C A70U, at most 0.5. The result for C4G G23C C62A G68C reads at most 0.5. With C4G C29A C34U A36U G67A the figure was at most 0.5. For the variant C4U C27U C49U G52A C60A, the yeast fitness is at most 0.5. With U2C C27A U59A the figure was at most 0.5; with C5G U13C C62A, at most 0.5; with C24A A43U A57G, at most 0.5. The result for C33G A57G C61G G63A A65G C66U reads at most 0.5; that for C4A C30U A57G A65U, at most 0.5; that for U2C C30G U59A A70U, at most 0.5. With A14U A43U A45G U47A the figure was at most 0.5; with C5G A20C G41A A69U, at most 0.5. For C11U C33U C60G, the yeast fitness was at most 0.5.

As for G23A C30G U47C C60G, the yeast fitness is at most 0.5. Turning to U26C C33U G52C, the yeast fitness was 0.609.

For the variant U8G A21U G68A, the yeast fitness was at most 0.5. With U47C U59G the figure was 0.936; with U3C C30G G63C, at most 0.5; with G12C A20G C22U C34U C49G, at most 0.5. For C11G C27U A40G U47A G52C, the yeast fitness was at most 0.5. The result for A21G G25A A40U G52C C55A C66G reads at most 0.5; that for G17A C33G C66U, at most 0.5. With C5U C24A G39C A70C the figure was at most 0.5. With U2C G9A C30G C55A the figure was at most 0.5; with U7G C22U G39C, at most 0.5; with C11G C22G A37U, at most 0.5. Regarding G10C G12A A15G G63A, the yeast fitness was found to be 0.643. Consider G9A C22G U35C, for which the yeast fitness is at most 0.5. The result for A21U C33A A69C reads at most 0.5; that for C11U G23C G39U, at most 0.5. The result for C24G C31A C60A reads at most 0.5; that for U16A A37G A43G A65U, at most 0.5. The result for C11U U13A U16A U54A reads 0.711. As for U16A C62U, the yeast fitness is 0.918. With A21C C49U C55A the figure was at most 0.5. With A20G C24G C29U G51C the figure was at most 0.5; with C22G C27G A36U A40C C66U, at most 0.5. C4G U8G G12A G48A A69C: the yeast fitness was at most 0.5. On to G23A U47A U64A, for which the yeast fitness is at most 0.5. Regarding C29G G38C G44A, the yeast fitness came out at 0.668. With A15C A20G C60G G67A the figure was at most 0.5; with G10C U26C C66U, at most 0.5. With C34A G44A C46U A65C the figure was at most 0.5; with A14G A45C, 0.718; with C31A C33U G41A C55A, at most 0.5.

For the variant C5U A20U C24U C27U, the yeast fitness is at most 0.5. Consider G10A C30A U32C G41C C60G A70U, for which the yeast fitness is at most 0.5. Consider A21U A36U A45G A65G, for which the yeast fitness was at most 0.5.

Source of the values: the RNAGym collection of RNA variant scans (doi:10.1126/science.aae0568).
